Patent USRE38425E1, “Semicarbazones having CNS activity and pharmaceutical preparations containing same” (University of Saskatchewan Technologies, Inc., priority 1995, dated 2004)
Some of these results come from one statement about several compounds together.

Tested on: rats
Assay: MES screen after oral administration to rats
Conditions: time t (h) per compound as in the table, listed as 12a

SMILES: NC(=O)NN=Cc1ccc(Oc2ccc(F)cc2)cc1 [Compound 4b, 4-(4′-fluorophenoxy)benzaldehyde semicarbazone]
- MES screen ED50: 1 to 5 mg/kg
